In PubChem BioAssay AID226 (DTP/NCI, 2004):
The list shows only some results of the screen, not a fair sample: it gathers tests that were run many times, whatever their T/C, doses with no T/C, and many T/C values between a quarter and a half above the control. Further doses and runs are listed elsewhere. T/C gives the treated animals as a percentage of the vehicle group. Some doses have a count of surviving animals in place of a T/C: the source holds a T/C of zero for them, seemingly a mark for toxic or unscored doses. Some doses without a T/C left all or most animals alive at the check, yet need not have been tolerated: the source hardly ever lists a survival T/C far under the control, and the zero likely stands for such cases as well. Counts of survivors are from the toxicity check (mostly the fifth day) where no day follows; animals may have died later. Schedule codes are those of the source, taken here to give the interval after Q, in days (D) or hours (H), and the number of doses after X. Some entries hold several experiments; the results are listed from low to high. For survival time, this PubChem deposit counts one and a half times the control or more as active, and values a quarter to a half above the control carry no call in these data; other NCI protocols may use other cut-offs. Some T/C values are followed by the survivors on the day toxicity was checked, most often the fifth; without a count, all were alive then. Counts like (3×) count equal records among those shown.

Tested on: B6C3F1 mice, intracerebral ependymoblastoma, median survival T/C
Experiment: NCI In Vivo Anticancer Drug Screen. Data for tumor model Ependymoblastoma (intracerebral) in B6C3F1 mice
Conditions: T/C endpoint: median survival time, higher T/C = longer survival
Experimental: The antitumor activity of compounds was measured in mice bearing transplantable tumors. Survival or tumor size were measured and the results are expressed as the measurement made in the treated group (T) divided by the measurement made in the vehicle treated control group (C). The tumor model used in this assay is Ependymoblastoma (intracerebral) in B6C3F1 mice

[1] = dose: 256.0 mg/kg/injection, schedule: Q01DX005 (ip), vehicle: saline
[2] = dose: 8.0 mg/kg/injection, schedule: Q01DX005 (ip), vehicle: saline
[3] = dose: 16.0 mg/kg/injection, schedule: Q01DX005 (ip), vehicle: saline
[4] = dose: 32.0 mg/kg/injection, schedule: Q01DX005 (ip), vehicle: saline
[5] = dose: 12.5 mg/kg/injection, schedule: Q01DX005 (ip), vehicle: Klucel (hydroxypropylcellulose) (HPC)
[6] = dose: 25.0 mg/kg/injection, schedule: Q01DX005 (ip), vehicle: Klucel (hydroxypropylcellulose) (HPC)
[7] = dose: 50.0 mg/kg/injection, schedule: Q01DX005 (ip), vehicle: Klucel (hydroxypropylcellulose) (HPC)
[8] = dose: 100.0 mg/kg/injection, schedule: Q01DX005 (ip), vehicle: Klucel (hydroxypropylcellulose) (HPC)

## CC[C@H]1CN2CCc3cc(OC)c(OC)cc3[C@@H]2C[C@@H]1C[C@H]1NCCc2cc(OC)c(OC)cc21
dose: 4.0 mg/kg/injection, schedule: Q01DX001 (ip), vehicle: Klucel (hydroxypropylcellulose) (HPC)
  T/C: 100, 104 [survivors not given], 107 [survivors not given], 110 % of control [survivors not given]
dose: 8.0 mg/kg/injection, schedule: Q01DX001 (ip), vehicle: Klucel (hydroxypropylcellulose) (HPC)
  T/C: 95 [survivors not given], 98, 99 [survivors not given], 112 % of control [survivors not given]
dose: 16.0 mg/kg/injection, schedule: Q01DX001 (ip), vehicle: Klucel (hydroxypropylcellulose) (HPC)
  T/C: 92, 92 [survivors not given], 98 [survivors not given], 99 % of control [survivors not given]
dose: 16.0 mg/kg/injection, schedule: Q01DX005 (ip), vehicle: Klucel (hydroxypropylcellulose) (HPC)
  survivor count: 1 of 10 and 9 of 10
dose: 32.0 mg/kg/injection, schedule: Q01DX001 (ip), vehicle: Klucel (hydroxypropylcellulose) (HPC)
  T/C: 89, 105 [survivors not given] (2×), 107 % of control [survivors not given]

## COc1ccc(C[C@H](N)C(=O)NC2C(CO)OC(n3cnc4c(N(C)C)ncnc43)C2O)cc1 (stereo partly drawn)
[1]
  survivor count: 2 of 10

## COC(=O)[C@@]12OC[C@]34[C@H]([C@@H](O)[C@@H]1O)[C@@]1(C)CC(=O)C(O)=C(C)[C@@H]1C[C@H]3OC(=O)[C@H](OC(=O)/C=C(\C)C(C)C)[C@@H]24
dose: 0.25 mg/kg/injection, schedule: Q01DX005 (oral), vehicle: saline
  survivor count: 8 of 10
dose: 2.0 mg/kg/injection, schedule: Q01DX001 (ip), vehicle: saline
  survivor count: 3 of 10
dose: 2.0 mg/kg/injection, schedule: Q01DX005 (ip), vehicle: saline + alcohol
  survivor count: 8 of 10
dose: 2.0 mg/kg/injection, schedule: Q12HX006 (ip), vehicle: saline
  survivor count: 0 of 10
dose: 4.0 mg/kg/injection, schedule: Q01DX001 (ip), vehicle: saline
  survivor count: 1 of 10 and 3 of 10
dose: 4.0 mg/kg/injection, schedule: Q01DX005 (oral), vehicle: saline
  survivor count: 7 of 10
dose: 8.0 mg/kg/injection, schedule: Q01DX001 (ip), vehicle: saline
  survivor count: 0 of 10
dose: 8.0 mg/kg/injection, schedule: Q01DX005 (oral), vehicle: saline
  survivor count: 3 of 10
dose: 16.0 mg/kg/injection, schedule: Q01DX001 (oral), vehicle: saline
  survivor count: 2 of 10 and 4 of 10
dose: 32.0 mg/kg/injection, schedule: Q01DX001 (oral), vehicle: saline
  survivor count: 0 of 10

## N[C@@H](Cc1ccc(N(CCCl)CCCl)cc1)C(=O)O
[2]
  T/C: 139 % of control
  survivor count: 9 of 10
[3]
  survivor count: 9 of 10
[4]
  survivor count: 7 of 10

## CN(N=O)C(=O)N[C@@H](C=O)[C@@H](O)[C@H](O)[C@H](O)CO
dose: 32.0 mg/kg/injection, schedule: Q01DX005 (ip), vehicle: other
  T/C: 130 % of control
dose: 50.0 mg/kg/injection, schedule: Q01DX005 (ip), vehicle: saline
  T/C: 134 % of control
dose: 50.0 mg/kg/injection, schedule: Q01DX009 (ip), vehicle: citric acid
  T/C: 125 % of control [8 of 9 alive]
dose: 64.0 mg/kg/injection, schedule: Q01DX005 (ip), vehicle: other
  T/C: 136 % of control
dose: 100.0 mg/kg/injection, schedule: Q01DX009 (ip), vehicle: citric acid
  survivor count: 9 of 10
dose: 128.0 mg/kg/injection, schedule: Q01DX005 (ip), vehicle: other
  survivor count: 10 of 10
dose: 150.0 mg/kg/injection, schedule: Q01DX001 (ip), vehicle: saline
  T/C: 136 % of control
dose: 200.0 mg/kg/injection, schedule: Q01DX009 (ip), vehicle: citric acid
  survivor count: 5 of 10
dose: 256.0 mg/kg/injection, schedule: Q01DX005 (ip), vehicle: other
  survivor count: 9 of 10
dose: 300.0 mg/kg/injection, schedule: Q01DX001 (ip), vehicle: saline
  T/C: 141 % of control
dose: 500.0 mg/kg/injection, schedule: Q01DX001 (ip), vehicle: saline
  survivor count: 8 of 10
dose: 512.0 mg/kg/injection, schedule: Q01DX005 (ip), vehicle: other
  survivor count: 0 of 10
dose: 1024.0 mg/kg/injection, schedule: Q01DX001 (ip), vehicle: other
  survivor count: 6 of 10

## CCCC(=O)OCC1OC(n2cnc3c(=S)nc(N)[nH]c32)C(OC(=O)CCC)C1OC(=O)CCC (stereo not drawn)
[5]
  T/C: 125 % of control [9 of 10 alive]
  survivor count: 10 of 10
[6]
  survivor count: 10 of 10
[7]
  survivor count: 10 of 10
[8]
  survivor count: 10 of 10

## CCC(C)Sc1nc(N)nc2c1ncn2C1OC(CO)C(O)C1O (stereo not drawn)
dose: 150.0 mg/kg/injection, schedule: Q01DX005 (ip), vehicle: Klucel (hydroxypropylcellulose) (HPC)
  T/C: 134 % of control

## Nc1ccn(C2OC(COC(=O)C34CC5CC(CC(C5)C3)C4)C(O)C2O)c(=O)n1 (stereo not drawn)
[7]
  T/C: 135 % of control
[8]
  survivor count: 9 of 10 and 10 of 10

## O=C1C(NCC(O)CO)=C(N2CC2)C(=O)C(NCC(O)CO)=C1N1CC1 (stereo not drawn)
dose: 2.0 mg/kg/injection, schedule: Q01DX005 (ip), vehicle: saline
  T/C: 125 % of control
dose: 4.0 mg/kg/injection, schedule: Q01DX005 (ip), vehicle: saline
  T/C: 135 % of control
[2]
  T/C: 140 % of control
[3]
  survivor count: 10 of 10

## Nc1nc(SCc2ccccc2Cl)c2ncn(C3OC(CO)C(O)C3O)c2n1 (stereo not drawn)
[6]
  T/C: 131 % of control
[7]
  T/C: 144 % of control
[8]
  survivor count: 9 of 10 and 10 of 10
dose: 200.0 mg/kg/injection, schedule: Q01DX005 (ip), vehicle: Klucel (hydroxypropylcellulose) (HPC)
  survivor count: 10 of 10
dose: 400.0 mg/kg/injection, schedule: Q01DX005 (ip), vehicle: Klucel (hydroxypropylcellulose) (HPC)
  survivor count: 10 of 10

## O=NN(CCF)C(=O)NC1C(O)CCCC1O (stereo not drawn)
dose: 21.6 mg/kg/injection, schedule: Q01DX001 (ip), vehicle: saline
  T/C: 141 % of control
dose: 40.0 mg/kg/injection, schedule: Q01DX005 (ip), vehicle: Klucel (hydroxypropylcellulose) (HPC)
  survivor count: 8 of 10 on day 6

## Cc1c2ccncc2c(C)c2c1[nH]c1ccccc12
dose: 256.0 mg/kg/injection, schedule: Q01DX001 (ip), vehicle: Klucel (hydroxypropylcellulose) (HPC)
  T/C: 142 % of control
dose: 512.0 mg/kg/injection, schedule: Q01DX001 (ip), vehicle: Klucel (hydroxypropylcellulose) (HPC)
  survivor count: 9 of 10
dose: 768.0 mg/kg/injection, schedule: Q01DX001 (ip), vehicle: Klucel (hydroxypropylcellulose) (HPC)
  survivor count: 10 of 10

## Cc1cnc(/C=N\NC(N)=S)c2cccc(N)c12
dose: 200.0 mg/kg/injection, schedule: Q01DX005 (ip), vehicle: saline with Tween-80
  survivor count: 4 of 10

## [Cl][Pt+2][Cl].[NH-]C1CCC1.[NH-]C1CCC1
dose: 40.0 mg/kg/injection, schedule: Q01DX005 (ip), vehicle: dextrose
  survivor count: 8 of 10
dose: 160.0 mg/kg/injection, schedule: Q01DX005 (ip), vehicle: dextrose
  survivor count: 8 of 10

## CC1(C)OCC(CO)(Nc2nc(N3CC3)nc(N3CC3)n2)CO1
dose: 10.0 mg/kg/injection, schedule: Q01DX005 (ip), vehicle: suspension in saline
  survivor count: 9 of 10
dose: 20.0 mg/kg/injection, schedule: Q01DX005 (ip), vehicle: suspension in saline
  survivor count: 8 of 10

## O=c1[nH]c(=O)n([C@H]2CCCO2)cc1F
dose: 256.0 mg/kg/injection, schedule: Q01DX005 (ip), vehicle: saline with Tween-80
  T/C: 130 % of control
[1]
  survivor count: 9 of 10 and 10 of 10
dose: 384.0 mg/kg/injection, schedule: Q01DX005 (ip), vehicle: saline with Tween-80
  survivor count: 10 of 10

## CN(Cc1ccccc1)/N=N/c1nc[nH]c1C(N)=O
[4]
  T/C: 128 % of control
dose: 64.0 mg/kg/injection, schedule: Q01DX005 (ip), vehicle: saline
  T/C: 133 % of control
dose: 128.0 mg/kg/injection, schedule: Q01DX005 (ip), vehicle: saline
  T/C: 138 % of control
[1]
  survivor count: 0 of 10
dose: 512.0 mg/kg/injection, schedule: Q01DX005 (ip), vehicle: saline
  survivor count: 0 of 10
